Laboratory results taken from publication doi:10.1101/2021.06.28.447216.
Results are given in words; binding and its absence hold for the method and conditions named. In cells and extracts the contact can be indirect. These calls come from enrichment with a bait or labelling near it, and not all partners need be listed.

Protein sequences, listed by entry. Tags and fused reporters are not part of them.
UniProt P83916: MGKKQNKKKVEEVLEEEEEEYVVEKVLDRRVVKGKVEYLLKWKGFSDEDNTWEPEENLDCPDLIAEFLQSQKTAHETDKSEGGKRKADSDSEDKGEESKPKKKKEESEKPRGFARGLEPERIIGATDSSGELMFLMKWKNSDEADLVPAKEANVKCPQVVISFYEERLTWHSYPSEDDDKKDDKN
UniProt Q13185: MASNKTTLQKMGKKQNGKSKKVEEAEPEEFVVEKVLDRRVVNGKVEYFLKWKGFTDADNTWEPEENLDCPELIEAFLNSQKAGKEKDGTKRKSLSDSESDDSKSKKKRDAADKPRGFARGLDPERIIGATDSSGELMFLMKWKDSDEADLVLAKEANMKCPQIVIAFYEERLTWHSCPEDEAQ
UniProt P45973: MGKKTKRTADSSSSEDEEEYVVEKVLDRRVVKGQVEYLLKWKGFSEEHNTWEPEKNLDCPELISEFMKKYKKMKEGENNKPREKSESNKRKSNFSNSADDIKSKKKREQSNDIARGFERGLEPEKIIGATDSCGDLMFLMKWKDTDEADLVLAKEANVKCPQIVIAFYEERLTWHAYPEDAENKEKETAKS
UniProt Q9H9B1: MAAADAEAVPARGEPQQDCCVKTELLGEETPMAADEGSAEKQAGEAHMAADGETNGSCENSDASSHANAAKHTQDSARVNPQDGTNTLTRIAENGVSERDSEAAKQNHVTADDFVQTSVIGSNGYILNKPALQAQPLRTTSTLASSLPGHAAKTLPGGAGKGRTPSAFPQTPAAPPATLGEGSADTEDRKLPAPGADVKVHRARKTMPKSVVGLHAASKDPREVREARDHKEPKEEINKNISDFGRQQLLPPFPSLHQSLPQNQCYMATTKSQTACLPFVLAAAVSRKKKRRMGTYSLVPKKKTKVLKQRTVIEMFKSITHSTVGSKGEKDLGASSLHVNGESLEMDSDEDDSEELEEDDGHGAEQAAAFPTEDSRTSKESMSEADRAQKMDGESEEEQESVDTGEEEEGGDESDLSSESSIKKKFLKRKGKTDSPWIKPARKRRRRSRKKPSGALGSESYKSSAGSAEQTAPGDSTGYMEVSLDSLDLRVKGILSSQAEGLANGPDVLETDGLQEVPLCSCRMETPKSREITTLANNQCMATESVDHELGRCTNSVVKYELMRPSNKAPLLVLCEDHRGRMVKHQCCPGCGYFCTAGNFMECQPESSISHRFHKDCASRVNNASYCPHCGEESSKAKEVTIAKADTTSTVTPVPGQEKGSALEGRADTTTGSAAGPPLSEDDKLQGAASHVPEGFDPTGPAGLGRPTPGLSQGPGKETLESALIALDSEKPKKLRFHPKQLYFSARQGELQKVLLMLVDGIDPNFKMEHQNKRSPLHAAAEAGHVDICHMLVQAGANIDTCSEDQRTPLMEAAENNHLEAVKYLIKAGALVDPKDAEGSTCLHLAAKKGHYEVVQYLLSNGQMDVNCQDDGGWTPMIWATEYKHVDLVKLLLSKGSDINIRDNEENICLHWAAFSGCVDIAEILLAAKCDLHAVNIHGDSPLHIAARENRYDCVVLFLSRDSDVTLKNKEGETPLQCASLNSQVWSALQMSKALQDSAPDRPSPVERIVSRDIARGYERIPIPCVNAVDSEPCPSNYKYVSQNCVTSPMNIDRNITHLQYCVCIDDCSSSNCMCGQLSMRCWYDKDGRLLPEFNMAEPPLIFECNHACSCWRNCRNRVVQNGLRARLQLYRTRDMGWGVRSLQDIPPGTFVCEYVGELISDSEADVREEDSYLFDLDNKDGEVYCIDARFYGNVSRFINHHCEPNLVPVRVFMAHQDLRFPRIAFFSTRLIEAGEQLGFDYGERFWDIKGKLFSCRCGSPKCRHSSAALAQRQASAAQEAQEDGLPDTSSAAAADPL
UniProt O75367: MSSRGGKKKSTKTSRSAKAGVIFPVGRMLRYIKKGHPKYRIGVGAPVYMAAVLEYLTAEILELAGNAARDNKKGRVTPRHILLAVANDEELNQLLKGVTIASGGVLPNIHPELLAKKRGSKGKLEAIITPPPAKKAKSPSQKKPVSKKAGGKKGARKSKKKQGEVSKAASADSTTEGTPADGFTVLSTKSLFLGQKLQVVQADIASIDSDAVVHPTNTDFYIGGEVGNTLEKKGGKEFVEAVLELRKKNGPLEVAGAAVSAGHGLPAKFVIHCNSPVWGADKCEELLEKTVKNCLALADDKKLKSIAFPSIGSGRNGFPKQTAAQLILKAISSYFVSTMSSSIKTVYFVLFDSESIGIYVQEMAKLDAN
UniProt O95785: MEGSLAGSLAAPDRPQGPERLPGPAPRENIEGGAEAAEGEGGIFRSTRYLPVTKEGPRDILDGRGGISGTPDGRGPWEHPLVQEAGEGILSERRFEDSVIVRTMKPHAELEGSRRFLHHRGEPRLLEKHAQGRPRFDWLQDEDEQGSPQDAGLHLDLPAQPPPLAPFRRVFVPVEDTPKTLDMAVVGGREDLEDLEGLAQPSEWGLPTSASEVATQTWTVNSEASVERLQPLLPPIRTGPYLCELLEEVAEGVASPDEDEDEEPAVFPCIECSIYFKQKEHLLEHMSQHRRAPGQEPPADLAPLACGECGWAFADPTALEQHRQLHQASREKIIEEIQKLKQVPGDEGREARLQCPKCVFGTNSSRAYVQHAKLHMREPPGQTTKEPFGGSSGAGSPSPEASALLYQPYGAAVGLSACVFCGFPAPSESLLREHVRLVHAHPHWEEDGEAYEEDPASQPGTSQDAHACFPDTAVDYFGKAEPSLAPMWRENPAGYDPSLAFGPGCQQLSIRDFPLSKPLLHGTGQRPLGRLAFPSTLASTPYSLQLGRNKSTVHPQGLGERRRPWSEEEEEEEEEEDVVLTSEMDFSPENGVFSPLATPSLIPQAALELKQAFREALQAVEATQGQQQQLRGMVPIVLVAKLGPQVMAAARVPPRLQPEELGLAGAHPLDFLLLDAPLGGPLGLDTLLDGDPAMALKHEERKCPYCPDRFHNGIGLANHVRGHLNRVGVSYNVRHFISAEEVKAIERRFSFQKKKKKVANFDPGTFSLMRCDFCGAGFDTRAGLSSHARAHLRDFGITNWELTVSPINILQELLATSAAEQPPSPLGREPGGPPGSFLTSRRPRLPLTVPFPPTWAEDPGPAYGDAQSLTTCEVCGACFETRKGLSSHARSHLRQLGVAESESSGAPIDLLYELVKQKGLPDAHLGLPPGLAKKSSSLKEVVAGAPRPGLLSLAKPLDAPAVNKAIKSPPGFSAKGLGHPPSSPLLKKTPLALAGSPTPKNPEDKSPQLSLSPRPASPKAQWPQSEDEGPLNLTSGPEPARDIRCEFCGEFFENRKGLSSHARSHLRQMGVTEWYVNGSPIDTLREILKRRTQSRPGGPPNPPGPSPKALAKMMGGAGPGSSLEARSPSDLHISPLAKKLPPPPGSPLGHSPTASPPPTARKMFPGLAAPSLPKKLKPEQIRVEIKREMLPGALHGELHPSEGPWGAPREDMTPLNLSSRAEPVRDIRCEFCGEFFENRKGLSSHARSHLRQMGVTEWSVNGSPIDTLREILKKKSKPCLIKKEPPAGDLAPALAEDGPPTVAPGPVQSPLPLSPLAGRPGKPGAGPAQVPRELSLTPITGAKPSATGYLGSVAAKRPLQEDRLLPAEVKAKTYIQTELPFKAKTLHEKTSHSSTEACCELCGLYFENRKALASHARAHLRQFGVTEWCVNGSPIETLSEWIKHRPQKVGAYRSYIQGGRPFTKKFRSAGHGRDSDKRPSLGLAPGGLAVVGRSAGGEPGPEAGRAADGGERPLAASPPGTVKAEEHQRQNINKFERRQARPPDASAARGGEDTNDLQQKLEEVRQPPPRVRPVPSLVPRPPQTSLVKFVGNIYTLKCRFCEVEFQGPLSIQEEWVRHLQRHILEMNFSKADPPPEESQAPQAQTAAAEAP

Assays:
Assay in all cases: proximity labelling
Flag-BirA*HP1-β (human) = Flag-BirA*HP1-β (human) (UniProt P83916)
Flag-BirA*HP1-γ (human) = Flag-BirA*HP1-γ (human) (UniProt Q13185)
Flag-BirA*HP1-α (human) = Flag-BirA*HP1-α (human) (UniProt P45973)

binding (Flag-BirA*HP1-β (human))	binding (Flag-BirA*HP1-γ (human))	binding (Flag-BirA*HP1-α (human))	Substance
binds	binds		EHMT1 (from UniProt Q9H9B1 1-1298)
binds	binds		H2AFY (from UniProt O75367 1-369)
binds	binds	binds	WIZ (from UniProt O95785 1-1651)
